According to paper PMC3333781, “Systematic mapping of two component response regulators to gene targets in a model sulfate reducing bacterium”:
Tags and fusion partners may be left off the protein sequences shown. For part of these data: For at least one entry, the source does not settle the construct or the ends of the probe.

Tests used:
Experiment in all cases: EMSA
[1] = biological target: T1, DVU3305 response regulator (Desulfovibrio vulgaris Hildenborough) (UniProt Q725X0); settings: 10 mM Tris-HCl pH 7.5, 1 mM DTT, 50 mM KCl, 5 mM MgCl2, 25% glycerol, 1 ug/ml poly dI-dC, 50-100 fmol biotinylated DNA, 25-30 C, 20 min; recombinant protein; protein details: C-terminal V5-6xHis; label: 5'-biotin top strand
T1 sequence (looked up, limits assumed): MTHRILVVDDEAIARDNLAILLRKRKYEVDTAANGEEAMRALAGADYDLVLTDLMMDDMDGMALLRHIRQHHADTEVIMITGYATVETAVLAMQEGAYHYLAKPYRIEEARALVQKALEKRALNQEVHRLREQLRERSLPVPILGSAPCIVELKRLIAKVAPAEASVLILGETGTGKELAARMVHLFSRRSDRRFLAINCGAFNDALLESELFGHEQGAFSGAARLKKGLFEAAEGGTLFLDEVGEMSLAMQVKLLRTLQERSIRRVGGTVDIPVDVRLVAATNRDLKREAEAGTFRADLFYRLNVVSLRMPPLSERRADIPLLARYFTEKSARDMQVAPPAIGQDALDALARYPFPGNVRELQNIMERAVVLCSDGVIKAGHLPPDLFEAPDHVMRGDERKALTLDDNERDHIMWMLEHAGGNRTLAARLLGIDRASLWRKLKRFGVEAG

[2] = biological target: T2, DVU0946 response regulator (Desulfovibrio vulgaris Hildenborough) (UniProt Q72DI3); settings: 10 mM Tris-HCl pH 7.5, 1 mM DTT, 50 mM KCl, 5 mM MgCl2, 25% glycerol, 1 ug/ml poly dI-dC, 50-100 fmol biotinylated DNA, 25-30 C, 20 min; recombinant protein; protein details: C-terminal V5-6xHis; label: 5'-biotin top strand
T2 sequence (looked up, limits assumed): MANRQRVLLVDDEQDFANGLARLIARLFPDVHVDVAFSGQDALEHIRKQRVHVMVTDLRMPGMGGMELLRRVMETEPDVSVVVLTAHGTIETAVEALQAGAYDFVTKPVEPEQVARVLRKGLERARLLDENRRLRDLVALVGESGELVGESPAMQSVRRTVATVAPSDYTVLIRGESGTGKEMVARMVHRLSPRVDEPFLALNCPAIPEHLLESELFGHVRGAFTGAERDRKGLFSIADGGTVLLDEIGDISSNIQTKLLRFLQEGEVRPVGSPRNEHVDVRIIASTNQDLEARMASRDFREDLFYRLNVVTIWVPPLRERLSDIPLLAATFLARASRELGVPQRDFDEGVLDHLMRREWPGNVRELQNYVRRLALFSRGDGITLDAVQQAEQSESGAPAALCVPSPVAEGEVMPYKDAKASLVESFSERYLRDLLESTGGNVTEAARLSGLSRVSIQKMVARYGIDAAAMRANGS

[3] = biological target: T3, DVU0539 response regulator (Desulfovibrio vulgaris Hildenborough) (UniProt Q72EN8); settings: 10 mM Tris-HCl pH 7.5, 1 mM DTT, 50 mM KCl, 5 mM MgCl2, 25% glycerol, 1 ug/ml poly dI-dC, 50-100 fmol biotinylated DNA, 25-30 C, 20 min; recombinant protein; protein details: C-terminal V5-6xHis; label: 5'-biotin top strand
T3 sequence (looked up, limits assumed): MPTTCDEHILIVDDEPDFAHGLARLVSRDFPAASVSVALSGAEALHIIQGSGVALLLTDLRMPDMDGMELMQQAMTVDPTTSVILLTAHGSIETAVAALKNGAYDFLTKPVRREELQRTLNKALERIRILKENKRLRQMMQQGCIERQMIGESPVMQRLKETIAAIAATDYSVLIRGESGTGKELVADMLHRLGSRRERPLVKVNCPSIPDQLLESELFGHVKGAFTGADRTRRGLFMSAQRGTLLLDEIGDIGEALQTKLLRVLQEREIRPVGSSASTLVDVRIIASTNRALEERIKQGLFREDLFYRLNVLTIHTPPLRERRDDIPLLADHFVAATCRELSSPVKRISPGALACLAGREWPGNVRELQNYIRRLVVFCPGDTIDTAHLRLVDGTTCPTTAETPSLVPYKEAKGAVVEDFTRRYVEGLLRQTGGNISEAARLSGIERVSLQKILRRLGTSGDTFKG

[4] = biological target: T4, DVU0621 response regulator (Desulfovibrio vulgaris Hildenborough) (UniProt Q72EF7); settings: 10 mM Tris-HCl pH 7.5, 1 mM DTT, 50 mM KCl, 5 mM MgCl2, 25% glycerol, 1 ug/ml poly dI-dC, 50-100 fmol biotinylated DNA, 25-30 C, 20 min; recombinant protein; protein details: C-terminal V5-6xHis; label: 5'-biotin top strand; letters put together from the description
T4 sequence (looked up, limits assumed): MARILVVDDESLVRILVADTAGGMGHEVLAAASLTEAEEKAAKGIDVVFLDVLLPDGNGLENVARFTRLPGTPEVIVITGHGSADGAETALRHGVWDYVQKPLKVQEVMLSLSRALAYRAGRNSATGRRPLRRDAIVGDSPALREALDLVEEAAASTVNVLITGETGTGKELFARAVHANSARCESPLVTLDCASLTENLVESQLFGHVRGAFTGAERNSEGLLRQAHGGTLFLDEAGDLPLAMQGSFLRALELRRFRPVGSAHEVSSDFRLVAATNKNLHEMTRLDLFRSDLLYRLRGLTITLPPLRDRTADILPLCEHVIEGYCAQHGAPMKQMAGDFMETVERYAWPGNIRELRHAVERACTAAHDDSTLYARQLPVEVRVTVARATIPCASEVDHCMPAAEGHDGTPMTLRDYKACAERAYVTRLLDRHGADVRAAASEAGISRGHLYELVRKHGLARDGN

[5] = biological target: T5, DVU3381 response regulator (Desulfovibrio vulgaris Hildenborough) (UniProt Q725P3); settings: 10 mM Tris-HCl pH 7.5, 1 mM DTT, 50 mM KCl, 5 mM MgCl2, 25% glycerol, 1 ug/ml poly dI-dC, 50-100 fmol biotinylated DNA, 25-30 C, 20 min; recombinant protein; protein details: C-terminal V5-6xHis; label: 5'-biotin top strand
T5 sequence (looked up, limits assumed): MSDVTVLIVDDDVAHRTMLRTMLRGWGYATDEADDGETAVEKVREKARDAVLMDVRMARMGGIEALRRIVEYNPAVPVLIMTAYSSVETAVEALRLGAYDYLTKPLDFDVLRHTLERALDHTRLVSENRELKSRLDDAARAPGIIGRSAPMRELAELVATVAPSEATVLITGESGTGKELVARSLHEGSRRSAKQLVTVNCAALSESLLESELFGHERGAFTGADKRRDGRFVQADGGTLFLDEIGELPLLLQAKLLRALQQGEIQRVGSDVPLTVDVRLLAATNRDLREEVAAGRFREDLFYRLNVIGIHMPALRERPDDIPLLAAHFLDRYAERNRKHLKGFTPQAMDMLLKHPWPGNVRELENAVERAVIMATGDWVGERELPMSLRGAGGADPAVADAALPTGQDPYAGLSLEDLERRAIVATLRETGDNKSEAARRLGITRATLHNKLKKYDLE

[6] = biological target: T6, DVU2588 response regulator (Desulfovibrio vulgaris Hildenborough) (UniProt Q728L5); settings: 10 mM Tris-HCl pH 7.5, 1 mM DTT, 50 mM KCl, 5 mM MgCl2, 25% glycerol, 1 ug/ml poly dI-dC, 50-100 fmol biotinylated DNA, 25-30 C, 20 min; recombinant protein; residues 1-226; protein details: C-terminal V5-6xHis; label: 5'-biotin top strand
T6 sequence (looked up): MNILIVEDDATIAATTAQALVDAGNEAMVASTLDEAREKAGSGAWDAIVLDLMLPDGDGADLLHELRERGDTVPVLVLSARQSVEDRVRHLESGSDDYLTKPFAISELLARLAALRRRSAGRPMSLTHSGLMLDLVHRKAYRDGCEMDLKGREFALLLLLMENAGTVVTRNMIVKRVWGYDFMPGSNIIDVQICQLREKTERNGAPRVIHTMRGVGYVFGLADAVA

AAAGCCTCGTGTTGCGATATGCAACACGAGGCCAC (double strand) [DVU3303 motif wt]
binding result [1]: binds

AAAGGGCGCTAACACAGGTTTACGATGCAAA (double strand) [DVU0943 motif wt]
binding result [2]: binds | binding result [3]: binds

ACGGTGTCGTCATCTTTTTCTGTCACCTGTCATCTTTTTCTGACTCCTGCAAGG (double strand) [DVU0624 upstream binding-site substrate (54 bp)]
binding result [4]: binds

CACGAATGGAGTATATTTTTTATACACCCATACAC (double strand) [DVU3384 motif wt]
binding result [5]: binds

CGTCCTGCACATTAACATTCTTTAATTAAAAGCTGT (double strand) [DVU0943 DVU2588-motif wt]
binding result [6]: binds
